{
  "source": "patent US8168391B2",
  "about": "“Method for modulating insulin production” (Burnham Institute for Medical Research, priority 2007, dated 2012)",
  "tested_on": "insulin promoter",
  "test": "Insulin promoter/reporter screen in the presence of a fatty acid (reversal of palmitate-induced lipotoxicity)",
  "format": "cell-based, human",
  "conditions": "screen in presence of fatty acid (FIG. 20) vs not in presence (FIG. 19)",
  "description": "The assays employ a cell line derived from human fetal islet cells (T6PNE) in which the cells are infected with a promoter/reporter construct. The construct is shown in FIG. 7 and incorporates an insulin promoter operably linked to an eGFP. Cells were infected and plated, and candidate libraries screened and “hit” detected as discussed in Example 1.\nTo differentiate between agents that specifically act to reverse lipotoxicity as compared to generally increasing transcription of insulin a two layer screening approach was utilized. In the first layer, islet cells infected with an insulin promoter/reporter construct are screened in the absence of a fatty acid. A “hit” indicates an agent that is capable of increasing insulin transcription. In the second layer, islet cells infected with an insulin promoter/reporter construct are screened in the presence of a fatty acid. A “hit” indicates a drug that reverses the effects of the fatty acid addition, for example reduction of insulin transcription. This drugs screened in both layers may be used to identify whether the drug is specific to lipotoxicity reversal. For example, drugs that are “hits” in the second layer screen but not in the first layer screen are specific to lipotoxicity reversal.",
  "data": [
    {"smiles": "CC(C)[N+]1(C)[C@@H]2CC[C@H]1C[C@@H](OC(=O)C(CO)c1ccccc1)C2.O.[Br-]", "note": "(stereo partly shown) [ipratropium bromide monohydrate]", "values": [
      {"measurement": "reversal of palmitate-induced lipotoxicity", "result": "expected to reverse lipotoxicity"}
    ]}
  ]
}
